These are yes or no findings as the source states them, for the method shown. Some results given as binding are weak or reduced against the parent protein; the word gives no strength.
Molecular target: T1, recombinant soluble human L-selectin (human, UniProt P14151 39-332)
T1 construct: extracellular domain; The residue numbers 1-279 count on the mature protein, not on the precursor
T1 sequence (looked up): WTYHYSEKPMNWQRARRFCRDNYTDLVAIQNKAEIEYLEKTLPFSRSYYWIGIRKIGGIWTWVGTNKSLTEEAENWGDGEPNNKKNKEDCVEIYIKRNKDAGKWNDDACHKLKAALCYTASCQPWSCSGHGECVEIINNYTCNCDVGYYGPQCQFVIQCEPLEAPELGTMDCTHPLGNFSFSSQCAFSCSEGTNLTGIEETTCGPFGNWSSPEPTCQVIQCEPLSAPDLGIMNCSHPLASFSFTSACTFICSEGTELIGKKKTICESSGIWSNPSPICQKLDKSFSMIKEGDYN
Assay: ELISA on coated soluble human L-selectin; antibody in culture supernatant

B1: chicken-human chimeric anti-L-selectin antibody D3 (antibody, V domains shown)
VH: AVTLDESGGGLQTPGGALSLVCRASGFSIGSYNMHWVRQAPGKGLEWVAGISGAGSRTAWYGAAVKGRATISRDNGQSTVRLQLNNLRAEDTGTYYCAKDYGGSGSPWYGWGAASWIDAWGHGTEVIVSS
VL: ALTQPASVSANPGETVKITCSGGSYYGWYQQKSPGSAPVTVIYDNDKRPSDIPSRFSGSKSGSTGTLTITGVQAEDEAVYFCGSADSAYVGIFGAGTTLTVL
notes: Transiently expressed in 293-H cells; also called ChD3; chimeric D3
- binding: binds

B2: humanized anti-L-selectin antibody D3 (antibody, V domains shown)
VH: EVQLLESGGGLVQPGGSLRLSCAASGFSIGSYNMHWVRQAPGKGLEWVAGISGAGSRTAWYGAAVKGRATISRDNAKNTVYLQMNSLRAEDTAVYYCAKDYGGSGSPWYGWGAASWIDAWGQGTLVTVSS
VL: SSELTQDPAVSVALGQTVRITCSGGSYYGWYQQKPGQAPVTVIYDNDKRPSDIPSRFSGSKSGSTGSLTITGAQAEDEADYYCGSADSAYVGIFGGGTKLTVL
notes: Transiently expressed in 293-H cells; also called HuD3; humanized D3
- binding: binds

— patent publication US20040260068A1 (published 2004)
